Some of the results follow.
Legend:
Experiment in all cases: glycan array binding signal (z-score within array); higher = stronger binding
Conditions in all cases: glycan notation: IUPAC condensed, linker removed
Gal3S(b1-4)Glc = biological target: Gal3S(b1-4)Glc
In short: (§1)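 The Consortium for Functional Glycomics database supplied 3228 glycan arrays, of which those lacking an available protein sequence were dropped. The binding signal, a within-array Z-score, was averaged across arrays of the same protein sequence and across linkers. Negative scores can be read as non-binding.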

Gal3S(b1-4)Glc6S = biological target: Gal3S(b1-4)Glc6S
In short: as §1

Gal3S(b1-4)GlcNAc = biological target: Gal3S(b1-4)GlcNAc
In short: as §1

[1] = biological target: Gal3S(b1-4)[Fuc(a1-3)]Glc6S
In short: as §1

[2] = biological target: Gal3S(b1-4)[Fuc(a1-3)]GlcNAc
In short: as §1

[3] = biological target: Gal3S(b1-4)[Fuc(a1-3)]GlcNAc6S
In short: as §1

Gal3S4S(b1-4)GlcNAc = biological target: Gal3S4S(b1-4)GlcNAc
In short: as §1

Gal3S6S(b1-4)GlcNAc = biological target: Gal3S6S(b1-4)GlcNAc
In short: as §1

Gal3S6S(b1-4)GlcNAc6S = biological target: Gal3S6S(b1-4)GlcNAc6S
In short: as §1

Gal4S(b1-4)GlcNAc = biological target: Gal4S(b1-4)GlcNAc
In short: as §1

Gal4S6S(b1-4)GlcNAc = biological target: Gal4S6S(b1-4)GlcNAc
In short: as §1

Gal6P(b1-4)GlcNAc = biological target: Gal6P(b1-4)GlcNAc
In short: as §1

Gal6S(b1-3)GlcNAc = biological target: Gal6S(b1-3)GlcNAc
In short: as §1

Gal6S(b1-3)GlcNAc6S = biological target: Gal6S(b1-3)GlcNAc6S
In short: as §1

Gal6S(b1-4)Glc = biological target: Gal6S(b1-4)Glc
In short: as §1

Gal6S(b1-4)Glc6S = biological target: Gal6S(b1-4)Glc6S
In short: as §1

Gal6S(b1-4)GlcNAc = biological target: Gal6S(b1-4)GlcNAc
In short: as §1

Gal6S(b1-4)GlcNAc6S = biological target: Gal6S(b1-4)GlcNAc6S
In short: as §1

GalNAc(a1-3)Gal = biological target: GalNAc(a1-3)Gal
In short: as §1

GalNAc(a1-3)GalNAc = biological target: GalNAc(a1-3)GalNAc
In short: as §1

[4] = biological target: GalNAc(a1-3)GalNAc(a1-3)Gal(a1-4)Gal(b1-4)GlcNAc
In short: as §1

[5] = biological target: GalNAc(a1-3)GalNAc(b1-3)Gal(a1-4)Gal(b1-4)Glc
In short: as §1

GalNAc(b1-3)Gal = biological target: GalNAc(b1-3)Gal
In short: as §1

[6] = biological target: GalNAc(b1-3)Gal(a1-4)Gal(b1-4)GlcNAc
In short: as §1

[7] = biological target: GalNAc(b1-3)Gal(a1-4)Gal(b1-4)GlcNAc(b1-3)Gal(b1-4)Glc
In short: as §1

[8] = biological target: GalNAc(b1-3)Gal(a1-6)Gal(b1-4)Glc
In short: as §1

GalNAc(b1-3)GalNAc = biological target: GalNAc(b1-3)GalNAc
In short: as §1

GalNAc(b1-3)GlcNAc = biological target: GalNAc(b1-3)GlcNAc
In short: as §1

GalNAc(b1-4)Gal(b1-4)Glc = biological target: GalNAc(b1-4)Gal(b1-4)Glc
In short: as §1

GalNAc(b1-4)GlcNAc = biological target: GalNAc(b1-4)GlcNAc
In short: as §1

[9] = biological target: GalNAc(b1-4)GlcNAc(b1-2)Man
In short: as §1

[10] = biological target: GalNAc(b1-4)GlcNAc(b1-2)Man(a1-3)[GalNAc(b1-4)GlcNAc(b1-2)Man(a1-6)]Man(b1-4)GlcNAc(b1-4)GlcNAc
In short: as §1

[11] = biological target: GalNAc(b1-4)GlcNAc(b1-3)GalNAc(b1-4)GlcNAc
In short: as §1

GalNAc(b1-4)GlcNAc6S = biological target: GalNAc(b1-4)GlcNAc6S
In short: as §1

GalNAc(b1-6)GalNAc = biological target: GalNAc(b1-6)GalNAc
In short: as §1

GalNAc3S(b1-4)GlcNAc = biological target: GalNAc3S(b1-4)GlcNAc
In short: as §1

GalNAc3S(b1-4)GlcNAc3S = biological target: GalNAc3S(b1-4)GlcNAc3S
In short: as §1

[12] = biological target: GalNAc3S(b1-4)[Fuc(a1-3)]GlcNAc
In short: as §1

GalNAc4S6S(b1-4)GlcNAc = biological target: GalNAc4S6S(b1-4)GlcNAc
In short: as §1

GalNAc6S(b1-4)GlcNAc = biological target: GalNAc6S(b1-4)GlcNAc
In short: as §1

Glc(a1-4)Glc = biological target: Glc(a1-4)Glc
In short: as §1

[13] = biological target: Glc(a1-4)Glc(a1-4)Glc(a1-4)Glc
In short: as §1

Glc(a1-6)Glc(a1-6)Glc = biological target: Glc(a1-6)Glc(a1-6)Glc
In short: as §1

[14] = biological target: Glc(a1-6)Glc(a1-6)Glc(a1-6)Glc
In short: as §1

Glc(b1-4)Glc = biological target: Glc(b1-4)Glc
In short: as §1

B1: Langerin K299A/K313A (Homo sapiens), Q9UJ71 (protein)
chain: STLNAQIPELKSDLEKASALNTKIRALQGSLENMSKLLKRQNDILQVVSQGWKYFKGNFYYFSLIPKTWYSAEQFCVSRNSHLTSVTSESEQEFLYKTAGGLIYWIGLTKAGMEGDWSWVDDTPFNKVQSARFWIPGEPNNAGNNEHCGNIAAPSLQAWNDAPCDATFLFICKRPYVPSEP
glycan array binding signal (z-score) (Gal3S(b1-4)Glc): -0.138
glycan array binding signal (z-score) (Gal3S(b1-4)Glc6S): -0.193
glycan array binding signal (z-score) (Gal3S(b1-4)GlcNAc): 0.073
glycan array binding signal (z-score) [1]: 5.35
glycan array binding signal (z-score) [2]: -0.817
glycan array binding signal (z-score) [3]: 0.871
glycan array binding signal (z-score) (Gal3S4S(b1-4)GlcNAc): -0.877
glycan array binding signal (z-score) (Gal3S6S(b1-4)GlcNAc): -0.279
glycan array binding signal (z-score) (Gal3S6S(b1-4)GlcNAc6S): 0.14
glycan array binding signal (z-score) (Gal4S(b1-4)GlcNAc): -0.751
glycan array binding signal (z-score) (Gal4S6S(b1-4)GlcNAc): -1.13
glycan array binding signal (z-score) (Gal6P(b1-4)GlcNAc): 0.32
glycan array binding signal (z-score) (Gal6S(b1-3)GlcNAc): -0.241
glycan array binding signal (z-score) (Gal6S(b1-3)GlcNAc6S): -0.479
glycan array binding signal (z-score) (Gal6S(b1-4)Glc): -0.116
glycan array binding signal (z-score) (Gal6S(b1-4)Glc6S): -0.156
glycan array binding signal (z-score) (Gal6S(b1-4)GlcNAc): 0.749
glycan array binding signal (z-score) (Gal6S(b1-4)GlcNAc6S): -0.004
glycan array binding signal (z-score) (GalNAc(a1-3)Gal): -0.751
glycan array binding signal (z-score) (GalNAc(a1-3)GalNAc): -0.656
glycan array binding signal (z-score) [4]: -0.545
glycan array binding signal (z-score) [5]: 0.162
glycan array binding signal (z-score) (GalNAc(b1-3)Gal): -0.458
glycan array binding signal (z-score) [6]: -0.675
glycan array binding signal (z-score) [7]: -1.32
glycan array binding signal (z-score) [8]: 0.155
glycan array binding signal (z-score) (GalNAc(b1-3)GalNAc): -0.656
glycan array binding signal (z-score) (GalNAc(b1-3)GlcNAc): -0.673
glycan array binding signal (z-score) (GalNAc(b1-4)Gal(b1-4)Glc): 0.297
glycan array binding signal (z-score) (GalNAc(b1-4)GlcNAc): -0.122
glycan array binding signal (z-score) [9]: -1
glycan array binding signal (z-score) [10]: 0.824
glycan array binding signal (z-score) [11]: 0.094
glycan array binding signal (z-score) (GalNAc(b1-4)GlcNAc6S): -1.26
glycan array binding signal (z-score) (GalNAc(b1-6)GalNAc): -0.509
glycan array binding signal (z-score) (GalNAc3S(b1-4)GlcNAc): -0.815
glycan array binding signal (z-score) (GalNAc3S(b1-4)GlcNAc3S): 0.359
glycan array binding signal (z-score) [12]: -1
glycan array binding signal (z-score) (GalNAc4S6S(b1-4)GlcNAc): 0.212
glycan array binding signal (z-score) (GalNAc6S(b1-4)GlcNAc): -0.425
glycan array binding signal (z-score) (Glc(a1-4)Glc): -0.103
glycan array binding signal (z-score) [13]: -0.576
glycan array binding signal (z-score) (Glc(a1-6)Glc(a1-6)Glc): 0.636
glycan array binding signal (z-score) [14]: -0.568
glycan array binding signal (z-score) (Glc(b1-4)Glc): -0.813

Source: the supplement of paper PMC8728848
